Reference: PubChem BioAssay AID504834 (National Center for Advancing Translational Sciences (NCATS), 2011)
Among all 320,000 compounds or so, about 22,000 (6.9%) were called active. This list was built around the results that the source calls inconclusive (neither active nor inactive); the mix of calls is not that of the screen. Calls follow the shape of the dose curve; as a rule, active = well fitted inhibition curve with a large enough effect; inconclusive = small, poorly fitted or top-dose-only effect, or another doubt; inactive = no such curve, though single readings can be large or run the other way. Potencies of inconclusive entries are doubtful fits and often do not repeat.

experiment: Primary qHTS for delayed death inhibitors of the malarial parasite plastid, 96 hour incubation; settings: P. falciparum luciferase reporter growth; series mostly up to 28.7 µM; activity change, negative = inhibition: at the top concentration
Summary of the method: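 P. falciparum expressing integrated firefly luciferase grown in erythrocytes (2% hematocrit, 0.05% parasitemia final) with compounds for 96 hours at 37 C, 5% CO2. Growth inhibition read as loss of luminescence after adding luciferase detection reagent.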
% is scaled to controls: 0 for no effect and ±100 for the full control effect; potency is read from the fitted curve at half-maximal effect.

Structure (SMILES)	Potency	activity change, negative = inhibition
Cc1ccc(N2CC(=O)Nc3c(sc4nc(C)cc(C)c34)C2=O)cc1	inconclusive: 0.165 µM [inhibitor, full curve]	–
O=C(NC1CCCC1)C1CCC(CNS(=O)(=O)c2ccccc2)CC1 (stereo unspecified)	–	inactive: 4.95%
O=C(NCCc1ccc(Cl)cc1)c1cccs1	inconclusive: 10.4 µM [inhibitor, single point]	–
CCN(c1ccccc1)S(=O)(=O)c1cc(CN2C(=O)c3cccnc3C2=O)ccc1OC	inconclusive: 11.7 µM [inhibitor, partial curve, poor fit]	–
COc1ccc2[nH]c3c(=O)n(/N=C/[C@H]4C(C)C=C(C)CC4C)c(=O)[nH]c3c2c1 (stereo partly specified)	–	inactive: -66.7%
O=S(=O)(Nc1ccc(-c2cn3c(n2)SCC3)cc1)c1ccccc1F	inconclusive: 13.1 µM [inhibitor, single point]	–
CCc1cccc2c(C(=S)N3CCOCC3)c[nH]c12	–	inactive: -3.68%
Cc1nn(Cc2cccc(C(=O)NCC(C)C)c2)c(C)c1Br	inconclusive: 18.5 µM [inhibitor, single point]	–
CCCNC(=O)C(Cc1ccc(Cl)cc1)NC(=O)c1ccc(-c2ccccc2)cc1 (stereo unspecified)	inconclusive: 11.7 µM [inhibitor, single point]	–
CC(C)c1onc(C(=O)N(C)C2CCCCC2)c1[N+](=O)[O-]	–	inactive: 11.9%
Cc1cc(NC(=O)C2C3C(=O)N(CC4CCCO4)C(C(=O)NC(C)(C)C)C34C=CC2(C)O4)no1 (stereo unspecified)	inconclusive: 10.4 µM [inhibitor, single point]	–
O=C(C1=C[C@H](C2CC2)C[C@H](OCc2ccc(CO)cc2)O1)N1CCN(Cc2ccc3c(c2)OCO3)CC1	inconclusive: 11.7 µM [inhibitor, single point]	–
O=C(NCc1ccco1)c1ccc2nc3sc4c(c3c(=O)n2c1)CCCC4	active: 1.85 µM	–
CC(C)C[C@H](NC(=O)N1CCn2c1nc1ccccc12)C(=O)NCCc1ccccc1	inconclusive: 18.5 µM [inhibitor, single point]	–
Cc1c(NC(=O)/C=C/C(=O)O)cccc1[N+](=O)[O-]	inconclusive: 1.47 µM [inhibitor, full curve, poor fit]	–
Cn1c(=O)c2c(SCC(=O)NCC3CCCO3)nc(-c3ccccc3Cl)nc2n(C)c1=O (stereo unspecified)	inconclusive: 11.7 µM [inhibitor, single point]	–
CNC(=O)c1ccccc1NC(=O)c1cccc(S(=O)(=O)N2CCCCC2)c1	active: 2.94 µM	–
CN(C)c1nc(Nc2ccc(F)cc2)nc(Oc2ccc(F)cc2)n1	inconclusive: 18.5 µM [inhibitor, single point]	–
CCC(NC(=O)C1C2C=CC(C2)C1C(=O)O)c1ccc(C)cc1 (stereo unspecified)	inconclusive: 13.1 µM [inhibitor, single point]	–
CC(C)CC(=O)Nc1ccc(C(=O)Cn2c(=O)oc3ccccc32)cc1	inconclusive: 0.329 µM [inhibitor, partial curve, poor fit]	–
O=C(CCC(=O)N1CCOCC1)NCCc1ccc(Cl)cc1Cl	inconclusive: 13.1 µM [inhibitor, partial curve, poor fit]	–
Cc1ccccc1C(OCCN(C(C)C)C(C)C)c1ccccc1 (stereo unspecified)	inconclusive: 10.4 µM [inhibitor, single point]	–
CCn1cc(C(=O)N2CC=C(c3ccccc3)CC2)c(=O)c2ccc(C)nc21	inconclusive: 1.65 µM [inhibitor, full curve, poor fit]	–
CC(C)OC(=O)c1cc2ccccc2[nH]1	inconclusive: 16.5 µM [inhibitor, single point]	–

Structure (SMILES)	Potency	activity change, negative = inhibition
COC(=O)c1nc2ccccn2c1F	inconclusive: 18.5 µM [inhibitor, single point]	–
CCOC(=O)C1(CCCc2ccccc2)CCN(S(=O)(=O)N(C)C)CC1	–	inactive: 6.4%
COc1ccc(/C(C)=N/NC(=O)CNC(=O)/C=C\c2ccco2)cc1	inconclusive: 18.5 µM [inhibitor, single point]	–
COc1ccc(OC)c(CNCCc2ccc(OC)c(OC)c2)c1	inconclusive: 10.4 µM [inhibitor, single point]	–
Cc1c(C(=O)N2CCC(C)CC2)sc2ncn(CC(=O)N3CCC(C)CC3)c(=O)c12	–	inactive: -3.48%
O=C(N/N=C/c1cccc(Oc2ccccc2)c1)c1ccccc1F	inconclusive: 16.5 µM [inhibitor, single point]	–
COc1cccc(NC(=O)COC(=O)c2ccccc2F)c1	–	inactive: -13.9%
CC(C)N(CCO)Cc1nc(C(c2ccccc2)c2ccccc2)no1	active: 9.28 µM	–
CC(C)NC(=O)/C(=N\O)c1ccccc1	–	inactive: 46.2%
COc1cccc(C(=O)Nc2nnc(C(C)C)s2)c1	–	inactive: -11.8%
COc1cccc(C2CC(c3ccc(Cl)cc3)n3nc(N)nc3N2)c1 (stereo unspecified)	inconclusive: 2.94 µM [inhibitor, single point]	–
COc1ccc(OC)c(NS(=O)(=O)c2cccs2)c1	inconclusive: 18.5 µM [inhibitor, partial curve, poor fit]	–
O=C(C1CCCN(c2ncnc3c2nc2n3CCCCC2)C1)N1CCN(c2ccc(F)cc2)CC1 (stereo unspecified)	inconclusive: 11.7 µM [inhibitor, single point]	–
CNC(=O)c1cc2c(-c3ccccc3)nn(C)c2s1	–	inactive: -20.4%
NC(=O)N1N=C2/C(=C/c3ccccc3)CCCC2C1c1ccccc1 (stereo unspecified)	inconclusive: 13.1 µM [inhibitor, partial curve, poor fit]	–
Cc1ccc(C(=O)Nc2nnc(COc3ccccc3)s2)cc1	inconclusive: 18.5 µM [inhibitor, single point]	–
CO/N=C/NC(=O)N1OC[C@@H]2COc3ccc4ccccc4c3[C@@H]21	–	inactive: -32.4%
CCCCNC(=O)NNC(=O)c1ccoc1C	inconclusive: 0.185 µM [inhibitor, full curve, poor fit]	–
COc1ccc(N2CCN(C(=O)c3[nH]c4ccc(OC)cc4c3C)CC2)cc1	–	inactive: 14.2%
Cc1cccc(C)c1OCCn1nc(C(=O)O)c2ccccc2c1=O	–	inactive: 5.7%
CCC(C(=O)N1CCN(Cc2ccc3c(c2)OCO3)CC1)n1c(=O)[nH]c2ccccc2c1=O (stereo unspecified)	inconclusive: 18.5 µM [inhibitor, single point]	–
COc1cc(C(=O)NC(=S)NNC(=O)c2cnccn2)cc(OC)c1OC	inconclusive: 13.1 µM [inhibitor, single point]	–
COc1ccccc1Nc1nc(-c2sc(NC(=O)c3ccccc3)nc2C)cs1	inconclusive: 9.28 µM [inhibitor, partial curve]	–
O=C(NCc1ccccc1)C(c1cccnc1)N(C(=O)c1ccccn1)c1ccc(F)cc1 (stereo unspecified)	inconclusive: 10.4 µM [inhibitor, partial curve, poor fit]	–

Single entries from the results shown.
For Potency, NC(=O)N1N=C2/C(=C/c3ccccc3)CCCC2C1c1ccccc1 (stereo unspecified) has inconclusive: 13.1 µM [inhibitor, partial curve, poor fit]
For Potency, COc1ccc(OC)c(CNCCc2ccc(OC)c(OC)c2)c1 has inconclusive: 10.4 µM [inhibitor, single point]
For Potency, Cc1ccc(C(=O)Nc2nnc(COc3ccccc3)s2)cc1 has inconclusive: 18.5 µM [inhibitor, single point]

Further compounds follow.

Structure (SMILES)	Potency	activity change, negative = inhibition
Cc1ccc(Cl)cc1NS(=O)(=O)c1ccc(-n2cccn2)cc1	–	inactive: 7.77%
Cn1cccc1CNCCc1ccccc1F	active: 2.62 µM	–
COC(=O)c1c(NC(=O)C2COc3ccccc3O2)sc2c1CCN(C(C)=O)C2 (stereo unspecified)	inconclusive: 14.7 µM [inhibitor, partial curve, poor fit]	–
Cc1cccc(-n2ncc3c(=O)[nH]c(SCC(=O)NCCC4=CCCCC4)nc32)c1	inconclusive: 0.828 µM [inhibitor, full curve, poor fit]	–
O=C1COc2ccc(-c3csc(NCC4CCCO4)n3)cc2N1 (stereo unspecified)	active: 14.7 µM	–
Fc1ccc(CSc2nncn2NC/C=C/c2ccccc2)cc1	inconclusive: 13.1 µM [inhibitor, single point]	–
CN1C(=O)/C(=C/c2ccccc2F)Sc2ccc(C(=O)N3CCCC3)cc21	–	inactive: -7.1%
c1coc(-c2nnc(-c3cccs3)o2)c1	–	inactive: 20.7%
CCOc1ccccc1-c1nc2c(C(C)(C)C)nn(C)c2c(=O)[nH]1	–	inactive: 13.8%
CCOC(=O)C1(CCCc2ccccc2)CCN(C2CCCC2)CC1	inconclusive: 0.0415 µM [inhibitor, full curve, poor fit]	–
O=C(COC(=O)c1ccc(F)cc1)NCc1ccc(F)cc1	–	inactive: 5.02%
Cc1onc(-c2ccccc2)c1C(=O)N/N=C/c1ccc([N+](=O)[O-])s1	inconclusive: 16.5 µM [inhibitor, single point]	–
O=C1COc2ccc(C(=O)COC(=O)CCc3ccc(S(=O)(=O)N4CCOCC4)cc3)cc2N1	inconclusive: 0.0657 µM [inhibitor, full curve, poor fit]	–
C=CCN1CCN(C(c2ccc(Cl)cc2)c2nnnn2CCc2ccc(OC)c(OC)c2)CC1 (stereo unspecified)	–	inactive: -4.2%
CC1CCN(C(=O)CSc2nnc3ccc(-c4cccnc4)nn23)CC1	inconclusive: 14.7 µM [inhibitor, single point]	–
CC1(C)CC(=O)C=C(C(=O)N2CCCC(C(=O)c3cccc(C(F)(F)F)c3)C2)O1 (stereo unspecified)	inconclusive: 2.33 µM [inhibitor, partial curve, poor fit]	–
CCOc1cc(/C=C(\C#N)C(=O)Nc2ccccc2C(=O)O)ccc1OC(=O)c1ccc(C)cc1	inconclusive: 18.5 µM [inhibitor, single point]	–
Cc1cccc[n+]1CC(=O)Nc1cccc([N+](=O)[O-])c1	–	inactive: 33.2%
CC1(OC(=O)C2CCCC2)C(=O)C=C2C=C(c3ccsc3)N(CCc3c[nH]c4ccccc34)C=C2C1=O (stereo unspecified)	active: 13.1 µM	–
COc1cc(NC(=O)COC(=O)c2nc3nc(C)cc(C)n3n2)cc(OC)c1	inconclusive: 0.0738 µM [inhibitor, full curve, poor fit]	–
O=C(Nc1ccccc1[N+](=O)[O-])C1C(c2ccccc2)=C1c1ccccc1	active: 13.1 µM	–
O=C(COC(=O)CCSc1ccccc1)NCc1ccccc1	–	inactive: 35.5%
CCCCOC(=O)c1ccc(NC(=O)Nc2ccc(OC)c(OC)c2)cc1	inconclusive: 13.1 µM [inhibitor, single point]	–
